Laboratory results as given in US20220073586A1.
Results are given in words; binding and its absence hold for the method and conditions named. Some results given as binding are weak or reduced against the parent protein; the word gives no strength. Sequences can lack the tags named with a protein.

Protein sequences, listed by entry. Tags and fused reporters are not part of them. Lines headed by an entry give the natural chain unless they say otherwise; changes in a name come on top. Residues count along the entry.
UniProt Q9NZQ7: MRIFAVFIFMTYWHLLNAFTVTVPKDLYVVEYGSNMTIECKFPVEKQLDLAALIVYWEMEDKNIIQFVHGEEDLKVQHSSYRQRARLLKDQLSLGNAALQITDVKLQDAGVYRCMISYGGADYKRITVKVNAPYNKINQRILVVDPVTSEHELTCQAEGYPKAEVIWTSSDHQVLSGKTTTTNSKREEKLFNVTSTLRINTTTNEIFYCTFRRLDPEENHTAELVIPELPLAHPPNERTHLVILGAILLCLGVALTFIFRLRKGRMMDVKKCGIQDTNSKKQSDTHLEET
PD-L1 on MDA-MB-231 cells (PD-L1 high expressed human breast cancer cell line): residues 19-290 of Q9NZQ7

Tests used:
[1] = target: PD-L1 antigen (coated on 96-well immunoplate) (UniProt Q9NZQ7); assay: single antigen ELISA, PD-L1 coated at 1 ug/mL, detection with anti-hFc-HRP
[2] = target: PD-L1 molecules (Sino, Cat #10084-H08H) (UniProt Q9NZQ7); assay: SPR, Biacore T200
[3] = target: PD-L1 on MDA-MB-231 cells (PD-L1 high expressed human breast cancer cell line) (human) (UniProt Q9NZQ7); assay: FACS cell binding on PD-L1 positive cells (MDA-MB-231), detection with anti-hFc-AF488
[4] = target: PD-L1 on MDA-MB-231 cells (PD-L1 high expressed human breast cancer cell line) (human) (UniProt Q9NZQ7); assay: FACS on MDA-MB-231 cells, anti-hFC-AF488 second antibody
[5] = target: PD-L1 antigen (coated on 96-well immunoplate) (UniProt Q9NZQ7); assay: plate antigen binding assay, coated PD-L1, anti-hFc-HRP

Measured: binding

B1: euPD-1 Fc fusion protein (Fc fusion)
chain: FLESPDRPWNAPTFSPALLLVAEGDNATFTCSFSNASESFHVVWHRESPSGQTDTLAAFPEDRSQPGQDHRFRVTRLPNGRDFHMSVVRAQRNDSGTYVCGVISLAPKIQIKESLRAELRVTERRAEVPTAHPSPSPRPAGQFQTLVVGGGGGSSNTKVDKRVEPKSCDKTHTCPPCPAPPVAGPSVFLFPPKPKDTLMISRTPEVTCVVVDVSHEDPEVQFNWYVDGVEVHNAKTKPREEQFNSTFRVVSVLTVVHQDWLNGKEYKCKVSNKGLPAPIEKTISKTKGQPREPQVYTLPPSREEMTKNQVSLTCLVKGFYPSDIAVEWESNGQPENNYKTTPPMLDSDGSFFLYSKLTVDKSRWQQGNVFSCSVMHEALHNHYTQKSLSLSPGK
binds: all assays above
